Some entries share one result that the patent states for a list of compounds.
Test: Two-photon absorption cross section
Type: physicochemical
Conditions: in solution, near infra-red

| Compound | Two photon absorption cross section at maximum |
| --- | --- |
| CCN(CCO)c1ccc(/C=C/c2ccc(C#Cc3ccc4c(c3)C(CCOCCOCCOC)(CCOCCOCCOC)c3cc(C#Cc5ccc(/C=C/c6ccc(N(CC)CCO)cc6)s5)ccc3-4)s2)cc1 [Photosensitizer 6b] | > 1000 GM |
| CCCCC1(CCCC)c2cc(C#Cc3ccc(/C=C/c4ccc(N(CC)CCO)cc4)s3)ccc2-c2ccc(C#Cc3ccc(/C=C/c4ccc(N(CC)CCO)cc4)s3)cc21 [Photosensitizer 6a] | > 1000 GM |

From patent US8709747B2, “Biphotonic photosensitizers, nanoparticles containing the same and their use as drugs” (Centre National de la Recherche Scientifique, priority 2009, dated 2014)
